Test results from the supplement of paper PMC10849652.
This is one part of the list.

Amino acid sequences for entries named in this document (tags omitted). A change or cut given only in a name is not applied to a line headed by its entry.
UniProt Q96F07, whole entry, looked up: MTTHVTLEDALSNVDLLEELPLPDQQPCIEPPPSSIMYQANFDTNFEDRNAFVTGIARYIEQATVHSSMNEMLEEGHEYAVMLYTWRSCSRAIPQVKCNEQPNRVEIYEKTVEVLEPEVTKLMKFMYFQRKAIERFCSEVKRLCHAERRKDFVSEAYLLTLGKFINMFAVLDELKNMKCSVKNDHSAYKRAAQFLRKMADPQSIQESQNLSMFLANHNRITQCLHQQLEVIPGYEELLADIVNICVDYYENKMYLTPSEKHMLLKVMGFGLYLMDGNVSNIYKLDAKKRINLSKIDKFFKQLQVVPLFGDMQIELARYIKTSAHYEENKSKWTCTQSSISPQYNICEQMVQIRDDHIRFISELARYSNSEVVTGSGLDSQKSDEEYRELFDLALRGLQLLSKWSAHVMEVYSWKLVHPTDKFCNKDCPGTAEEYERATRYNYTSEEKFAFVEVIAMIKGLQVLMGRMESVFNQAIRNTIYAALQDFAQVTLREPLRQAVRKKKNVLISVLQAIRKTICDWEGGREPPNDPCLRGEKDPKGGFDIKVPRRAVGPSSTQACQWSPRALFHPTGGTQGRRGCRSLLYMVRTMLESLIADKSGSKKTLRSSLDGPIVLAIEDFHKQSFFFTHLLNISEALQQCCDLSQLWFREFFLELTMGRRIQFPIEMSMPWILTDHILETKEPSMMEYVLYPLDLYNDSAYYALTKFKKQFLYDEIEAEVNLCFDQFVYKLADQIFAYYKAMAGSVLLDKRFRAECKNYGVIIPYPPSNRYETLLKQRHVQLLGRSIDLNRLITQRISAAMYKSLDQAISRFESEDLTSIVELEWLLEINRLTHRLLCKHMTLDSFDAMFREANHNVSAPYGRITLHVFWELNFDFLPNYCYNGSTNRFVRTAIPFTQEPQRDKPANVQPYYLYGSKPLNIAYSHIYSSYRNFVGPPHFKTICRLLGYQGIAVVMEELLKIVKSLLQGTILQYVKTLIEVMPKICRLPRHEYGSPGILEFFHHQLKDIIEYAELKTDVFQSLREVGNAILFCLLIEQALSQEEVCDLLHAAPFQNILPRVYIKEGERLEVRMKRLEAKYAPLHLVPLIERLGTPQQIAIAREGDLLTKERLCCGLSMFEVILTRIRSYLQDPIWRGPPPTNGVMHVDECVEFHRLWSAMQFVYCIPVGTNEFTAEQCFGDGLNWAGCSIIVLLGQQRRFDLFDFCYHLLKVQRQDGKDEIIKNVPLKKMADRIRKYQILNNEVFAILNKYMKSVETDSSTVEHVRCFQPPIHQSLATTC
UniProt E9PJD7, whole entry, looked up: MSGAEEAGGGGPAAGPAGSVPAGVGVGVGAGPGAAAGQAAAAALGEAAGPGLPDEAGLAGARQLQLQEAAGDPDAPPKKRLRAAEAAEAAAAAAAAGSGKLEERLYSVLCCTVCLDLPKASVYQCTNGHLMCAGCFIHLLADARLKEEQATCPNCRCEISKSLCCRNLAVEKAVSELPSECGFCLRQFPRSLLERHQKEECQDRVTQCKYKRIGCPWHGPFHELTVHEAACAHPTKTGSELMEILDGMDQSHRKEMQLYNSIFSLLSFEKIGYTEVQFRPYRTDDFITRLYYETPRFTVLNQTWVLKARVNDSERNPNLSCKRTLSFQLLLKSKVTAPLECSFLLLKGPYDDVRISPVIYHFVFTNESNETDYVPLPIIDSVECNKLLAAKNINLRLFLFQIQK
UniProt P04080: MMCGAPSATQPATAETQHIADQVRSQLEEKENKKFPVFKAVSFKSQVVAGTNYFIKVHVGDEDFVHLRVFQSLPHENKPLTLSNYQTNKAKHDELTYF
UniProt Q2VPK5: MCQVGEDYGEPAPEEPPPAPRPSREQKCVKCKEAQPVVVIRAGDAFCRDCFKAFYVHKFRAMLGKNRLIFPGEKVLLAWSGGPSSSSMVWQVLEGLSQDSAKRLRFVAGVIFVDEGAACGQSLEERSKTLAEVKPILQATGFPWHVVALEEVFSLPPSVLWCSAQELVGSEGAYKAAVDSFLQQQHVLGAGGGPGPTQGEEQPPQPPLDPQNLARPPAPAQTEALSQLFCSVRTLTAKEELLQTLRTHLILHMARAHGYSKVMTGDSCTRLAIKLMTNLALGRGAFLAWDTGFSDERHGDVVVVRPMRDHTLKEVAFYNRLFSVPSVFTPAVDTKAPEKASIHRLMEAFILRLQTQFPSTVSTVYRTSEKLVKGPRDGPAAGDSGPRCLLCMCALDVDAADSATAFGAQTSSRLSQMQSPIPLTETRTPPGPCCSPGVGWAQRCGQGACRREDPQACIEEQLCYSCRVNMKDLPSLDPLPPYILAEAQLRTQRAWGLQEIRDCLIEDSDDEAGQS
UniProt P17812: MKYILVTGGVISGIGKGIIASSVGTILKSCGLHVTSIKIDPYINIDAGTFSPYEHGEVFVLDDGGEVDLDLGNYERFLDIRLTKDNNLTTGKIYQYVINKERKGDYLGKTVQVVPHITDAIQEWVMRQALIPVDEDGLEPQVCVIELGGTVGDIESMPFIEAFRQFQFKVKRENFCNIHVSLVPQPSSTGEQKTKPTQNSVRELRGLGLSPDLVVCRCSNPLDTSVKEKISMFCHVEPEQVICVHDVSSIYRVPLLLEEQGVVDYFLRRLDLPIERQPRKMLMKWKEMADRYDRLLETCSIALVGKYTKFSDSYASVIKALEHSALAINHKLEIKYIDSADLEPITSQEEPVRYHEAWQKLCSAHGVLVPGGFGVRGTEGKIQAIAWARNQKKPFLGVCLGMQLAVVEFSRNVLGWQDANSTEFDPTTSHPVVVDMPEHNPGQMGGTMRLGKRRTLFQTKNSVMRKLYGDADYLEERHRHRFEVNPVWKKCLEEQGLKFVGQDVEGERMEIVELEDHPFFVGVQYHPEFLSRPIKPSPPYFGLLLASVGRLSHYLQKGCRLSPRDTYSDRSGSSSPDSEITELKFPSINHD
UniProt P07108: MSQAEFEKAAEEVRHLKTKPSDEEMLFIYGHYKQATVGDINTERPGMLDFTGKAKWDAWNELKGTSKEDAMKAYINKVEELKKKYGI
UniProt Q8WVC6: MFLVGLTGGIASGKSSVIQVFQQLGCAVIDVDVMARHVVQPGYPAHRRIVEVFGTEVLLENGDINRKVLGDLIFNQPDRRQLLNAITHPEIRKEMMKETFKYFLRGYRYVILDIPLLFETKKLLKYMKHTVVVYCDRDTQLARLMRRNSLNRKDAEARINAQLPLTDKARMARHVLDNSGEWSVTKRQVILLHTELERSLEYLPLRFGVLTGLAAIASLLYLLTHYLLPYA
UniProt Q13616, whole entry, looked up: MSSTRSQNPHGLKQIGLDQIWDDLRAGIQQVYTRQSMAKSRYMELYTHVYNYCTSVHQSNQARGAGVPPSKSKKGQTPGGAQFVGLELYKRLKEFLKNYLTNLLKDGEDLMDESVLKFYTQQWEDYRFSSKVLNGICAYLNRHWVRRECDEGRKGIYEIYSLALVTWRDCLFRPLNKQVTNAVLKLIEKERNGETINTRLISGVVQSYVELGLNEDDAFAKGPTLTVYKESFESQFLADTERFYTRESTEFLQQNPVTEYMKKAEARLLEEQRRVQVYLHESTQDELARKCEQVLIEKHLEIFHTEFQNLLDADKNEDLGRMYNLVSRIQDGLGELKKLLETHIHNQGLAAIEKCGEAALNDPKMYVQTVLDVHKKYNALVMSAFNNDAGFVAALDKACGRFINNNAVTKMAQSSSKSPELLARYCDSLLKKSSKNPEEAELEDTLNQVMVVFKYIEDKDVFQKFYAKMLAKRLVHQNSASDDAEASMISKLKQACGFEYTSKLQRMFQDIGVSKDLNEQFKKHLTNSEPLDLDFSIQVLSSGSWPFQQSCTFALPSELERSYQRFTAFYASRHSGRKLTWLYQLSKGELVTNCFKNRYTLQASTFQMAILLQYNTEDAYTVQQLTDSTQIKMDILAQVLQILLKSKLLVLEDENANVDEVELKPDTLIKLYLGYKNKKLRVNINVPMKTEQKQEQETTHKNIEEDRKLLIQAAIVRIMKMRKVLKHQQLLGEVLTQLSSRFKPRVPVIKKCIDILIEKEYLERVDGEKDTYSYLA
UniProt Q9Y4B6: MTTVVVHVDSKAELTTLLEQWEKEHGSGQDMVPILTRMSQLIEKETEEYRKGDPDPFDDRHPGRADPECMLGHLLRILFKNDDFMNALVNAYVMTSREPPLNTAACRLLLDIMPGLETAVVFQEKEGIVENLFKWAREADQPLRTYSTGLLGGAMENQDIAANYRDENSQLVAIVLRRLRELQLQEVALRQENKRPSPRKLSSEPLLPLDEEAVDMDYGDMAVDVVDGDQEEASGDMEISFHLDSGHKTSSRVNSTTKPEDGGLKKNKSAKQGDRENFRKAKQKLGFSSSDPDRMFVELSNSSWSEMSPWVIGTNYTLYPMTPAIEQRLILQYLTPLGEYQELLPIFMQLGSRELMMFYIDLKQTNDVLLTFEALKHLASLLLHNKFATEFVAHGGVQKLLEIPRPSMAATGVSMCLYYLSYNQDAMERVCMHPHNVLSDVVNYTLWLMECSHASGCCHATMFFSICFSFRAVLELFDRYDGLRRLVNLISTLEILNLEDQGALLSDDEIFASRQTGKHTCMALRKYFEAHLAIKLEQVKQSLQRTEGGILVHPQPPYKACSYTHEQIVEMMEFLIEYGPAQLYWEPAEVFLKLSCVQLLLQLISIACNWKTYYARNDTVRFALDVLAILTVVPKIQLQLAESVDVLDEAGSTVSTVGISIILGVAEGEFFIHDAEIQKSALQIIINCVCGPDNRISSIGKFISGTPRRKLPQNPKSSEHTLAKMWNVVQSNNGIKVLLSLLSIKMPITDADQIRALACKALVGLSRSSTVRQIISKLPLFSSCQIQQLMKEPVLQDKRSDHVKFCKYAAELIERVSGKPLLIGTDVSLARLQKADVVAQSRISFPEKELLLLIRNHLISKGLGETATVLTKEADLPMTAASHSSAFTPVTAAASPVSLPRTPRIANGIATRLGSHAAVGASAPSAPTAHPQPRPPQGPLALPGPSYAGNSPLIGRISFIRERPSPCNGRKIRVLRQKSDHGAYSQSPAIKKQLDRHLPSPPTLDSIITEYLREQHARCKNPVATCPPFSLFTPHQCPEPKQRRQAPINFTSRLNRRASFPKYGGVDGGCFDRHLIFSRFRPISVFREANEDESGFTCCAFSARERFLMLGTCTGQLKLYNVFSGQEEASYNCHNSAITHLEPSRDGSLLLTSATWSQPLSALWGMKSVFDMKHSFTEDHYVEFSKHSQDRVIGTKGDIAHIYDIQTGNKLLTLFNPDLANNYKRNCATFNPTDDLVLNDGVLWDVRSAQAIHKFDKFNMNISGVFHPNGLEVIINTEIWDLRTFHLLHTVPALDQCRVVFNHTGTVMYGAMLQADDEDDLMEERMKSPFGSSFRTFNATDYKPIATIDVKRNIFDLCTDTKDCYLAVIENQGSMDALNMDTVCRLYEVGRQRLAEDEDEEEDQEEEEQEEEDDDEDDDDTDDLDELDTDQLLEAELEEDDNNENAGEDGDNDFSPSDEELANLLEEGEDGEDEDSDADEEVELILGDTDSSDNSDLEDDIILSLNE
UniProt P0DMU8: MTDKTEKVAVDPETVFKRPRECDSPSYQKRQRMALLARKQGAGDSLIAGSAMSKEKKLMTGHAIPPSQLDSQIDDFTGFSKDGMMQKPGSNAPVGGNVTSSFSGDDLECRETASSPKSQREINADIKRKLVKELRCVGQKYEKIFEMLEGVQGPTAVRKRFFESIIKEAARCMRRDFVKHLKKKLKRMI
UniProt Q9BQA9: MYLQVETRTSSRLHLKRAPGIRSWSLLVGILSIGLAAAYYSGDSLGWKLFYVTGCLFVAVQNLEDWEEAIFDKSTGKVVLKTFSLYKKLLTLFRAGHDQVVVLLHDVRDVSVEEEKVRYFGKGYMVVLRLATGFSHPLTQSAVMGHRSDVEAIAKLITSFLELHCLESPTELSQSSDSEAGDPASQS
UniProt O43310: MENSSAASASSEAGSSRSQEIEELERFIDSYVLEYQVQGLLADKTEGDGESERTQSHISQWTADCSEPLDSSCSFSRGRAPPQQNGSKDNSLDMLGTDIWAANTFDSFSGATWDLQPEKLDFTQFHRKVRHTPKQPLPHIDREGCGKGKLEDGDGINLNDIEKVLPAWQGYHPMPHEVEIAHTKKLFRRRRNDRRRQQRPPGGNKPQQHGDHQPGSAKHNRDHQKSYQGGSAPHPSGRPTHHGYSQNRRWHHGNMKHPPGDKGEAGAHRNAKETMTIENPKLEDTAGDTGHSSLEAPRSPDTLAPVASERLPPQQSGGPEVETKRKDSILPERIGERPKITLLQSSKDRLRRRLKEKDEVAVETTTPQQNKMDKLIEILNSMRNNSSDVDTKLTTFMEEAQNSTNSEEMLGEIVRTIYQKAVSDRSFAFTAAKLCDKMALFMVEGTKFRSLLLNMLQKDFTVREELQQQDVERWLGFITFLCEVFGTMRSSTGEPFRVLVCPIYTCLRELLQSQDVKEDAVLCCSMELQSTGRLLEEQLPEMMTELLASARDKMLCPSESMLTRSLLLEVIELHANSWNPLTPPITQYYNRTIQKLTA

Legend:
Test in all cases: log2 fold change, soluble protein after heating vs DMSO (PISA); higher = thermal stabilisation; K562 cells, 10 uM, 30 min; active = over 0.2 and 3.5 SD of the protein, either way, in both replicates (recomputed)
saracatinib = compound: CN1CCN(CCOc2cc(OC3CCOCC3)c3c(Nc4c(Cl)ccc5c4OCO5)ncnc3c2)CC1 [saracatinib]
Outline: (§1)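 K562 cells at 2×10^6 cells/mL were treated for 30 min with 10 μM compound, and aliquots were heated for 3 min over 48°C-58°C before pooling. Extraction used PBS with 0.5% NP-40 at 4°C, and soluble protein was the supernatant after 21,000xg for 90 min, measured by TMTpro 16plex LC-MS/MS with channel sums equalised. Thermal stability values, relative to control samples and from duplicates, are log2 fold changes.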

sotrastaurin = compound: CN1CCN(c2nc(C3=C(c4c[nH]c5ccccc45)C(=O)NC3=O)c3ccccc3n2)CC1 [sotrastaurin]
Outline: as §1

alvocidib = compound: CN1CC[C@H](c2c(O)cc(O)c3c(=O)cc(-c4ccccc4Cl)oc23)[C@H](O)C1 [alvocidib]
Outline: as §1

Tubastatin A = compound: CN1CCc2c(c3ccccc3n2Cc2ccc(C(=O)NO)cc2)C1 [Tubastatin A]
Outline: as §1

[1] = compound: CNC(=O)C1=CC=CC=C1NC2=NC(=NC=C2Cl)NC3=C(C=C(C=C3)N4CCOCC4)OC
Outline: as §1

defactinib = compound: CNC(=O)c1ccc(Nc2ncc(C(F)(F)F)c(NCc3nccnc3N(C)S(C)(=O)=O)n2)cc1 [defactinib]
Outline: as §1

rucaparib = compound: CNCc1ccc(-c2[nH]c3cc(F)cc4c3c2CCNC4=O)cc1 [rucaparib]
Outline: as §1

[2] = compound: CNc1nc(-c2ccc3c(N)n[nH]c3c2)cc(N2C[C@@H](C(=O)NC3CCCCC3)CC[C@H]2C)n1
Outline: as §1

encorafenib = compound: COC(=O)N[C@@H](C)CNc1nccc(-c2cn(C(C)C)nc2-c2cc(Cl)cc(NS(C)(=O)=O)c2F)n1 [encorafenib]
Outline: as §1

[3] = compound: COC(=O)[C@H](CCSC)NC(=O)C1=C(C=C(C=C1)NC[C@H](CS)N)C2=CC=CC=C2
Outline: as §1

[4] = compound: COC1=CC=C(C=C1)CN2C=CC3=C2C=C(C=C3)C(=O)NO
Outline: as §1

filanesib = compound: CON(C)C(=O)N1N=C(c2cc(F)ccc2F)S[C@@]1(CCCN)c1ccccc1 [filanesib]
Outline: as §1

zotarolimus = compound: CO[C@H]1C[C@@H]2CC[C@@H](C)[C@@](O)(O2)C(=O)C(=O)N2CCCC[C@H]2C(=O)O[C@H]([C@H](C)C[C@@H]2CC[C@H](n3cnnn3)[C@H](OC)C2)CC(=O)[C@H](C)/C=C(\C)[C@@H](O)[C@@H](OC)C(=O)[C@H](C)C[C@H](C)/C=C/C=C/C=C/1C [zotarolimus]
Outline: as §1

idasanutlin = compound: COc1cc(C(=O)O)ccc1NC(=O)[C@@H]1N[C@@H](CC(C)(C)C)[C@](C#N)(c2ccc(Cl)cc2F)[C@H]1c1cccc(Cl)c1F [idasanutlin]
Outline: as §1

alisertib = compound: COc1cc(Nc2ncc3c(n2)-c2ccc(Cl)cc2C(c2c(F)cccc2OC)=NC3)ccc1C(=O)O [alisertib]
Outline: as §1

[5] = compound: COc1cc2nc(-c3cc(F)ccc3O)nc(N[C@@H]3CNC[C@H]3C(C)(C)O)c2cc1OC
Outline: as §1

gefitinib = compound: COc1cc2ncnc(Nc3ccc(F)c(Cl)c3)c2cc1OCCCN1CCOCC1 [gefitinib]
Outline: as §1

[6] = compound: COc1cccc2cc(-c3nc([C@H]4CC[C@H](C(=O)O)CC4)n4ncnc(N)c34)[nH]c12
Outline: as §1

lapatinib = compound: CS(=O)(=O)CCNCc1ccc(-c2ccc3ncnc(Nc4ccc(OCc5cccc(F)c5)c(Cl)c4)c3c2)o1 [lapatinib]
Outline: as §1

pictilisib = compound: CS(=O)(=O)N1CCN(Cc2cc3nc(-c4cccc5[nH]ncc45)nc(N4CCOCC4)c3s2)CC1 [pictilisib]
Outline: as §1

Measured: log2 fold change

CYFIP2 (UniProt Q96F07)
inactive: saracatinib 0.004 | sotrastaurin 0.007 | alvocidib -0.042 | Tubastatin A -0.014 | [1] 0.027 | defactinib -0.08 | rucaparib -0.008 | [2] -0.024 | encorafenib -0.026 | [3] -0.02 | [4] 0.039 | filanesib -0.041 | zotarolimus -0.023 | idasanutlin -0.019 | alisertib 0.015 | [5] 0.02 | gefitinib 0.02 | [6] 0.014 | lapatinib 0.051 | pictilisib -0.005

CYHR1 (UniProt E9PJD7)
inactive: saracatinib 0.025 | sotrastaurin -0.001 | alvocidib -0.078 | Tubastatin A 0.002 | [1] 0.017 | defactinib -0.073 | rucaparib 0.026 | [2] -0.121 | encorafenib 0.03 | [3] 0.003 | [4] -0.127 | filanesib 0.002 | zotarolimus -0.077 | idasanutlin 0.031 | alisertib 0.003 | [5] -0.002 | gefitinib 0.07 | [6] 0.017 | lapatinib -0.042 | pictilisib -0.003

CSTB (UniProt P04080)
inactive: saracatinib -0.017 | sotrastaurin -0.05 | alvocidib -0.024 | Tubastatin A -0.004 | [1] 0.013 | defactinib -0.039 | rucaparib -0.1 | [2] 0.016 | encorafenib 0.023 | [3] 0.006 | [4] 0.03 | filanesib -0.006 | zotarolimus -0.018 | idasanutlin 0.008 | alisertib 0.033 | [5] -0.064 | gefitinib -0.029 | [6] 0.127 | lapatinib -0.111 | pictilisib -0.092

CTU2 (UniProt Q2VPK5)
inactive: saracatinib 0.019 | sotrastaurin 0.062 | alvocidib -0.047 | Tubastatin A -0.038 | [1] 0.003 | defactinib -0.07 | rucaparib -0.031 | [2] 0.015 | encorafenib -0.018 | [3] 0.064 | [4] -0.007 | filanesib -0.115 | zotarolimus 0.014 | idasanutlin -0.102 | alisertib -0.092 | [5] -0.035 | gefitinib -0.009 | [6] 0.044 | lapatinib -0.029 | pictilisib 0.019

CTPS1 (UniProt P17812)
inactive: saracatinib 0.027 | sotrastaurin 0.031 | alvocidib -0.014 | Tubastatin A -0.048 | [1] -0.046 | defactinib -0.013 | rucaparib -0.032 | [2] -0.026 | encorafenib -0.026 | [3] 0.02 | [4] -0.017 | filanesib -0.063 | zotarolimus -0.013 | idasanutlin -0.043 | alisertib -0.053 | [5] 0.019 | gefitinib -0.001 | [6] 0.017 | lapatinib 0.001 | pictilisib 0.029

DBI isoform 5 (UniProt P07108)
inactive: saracatinib -0.051 | sotrastaurin 0.05 | alvocidib -0.032 | Tubastatin A 0.033 | [1] -0.005 | defactinib -0.076 | rucaparib -0.014 | [2] 0.04 | encorafenib -0.027 | [3] 0.057 | [4] -0.043 | filanesib 0.007 | zotarolimus 0.058 | idasanutlin 0.069 | alisertib -0.038 | [5] -0.129 | gefitinib 0.004 | [6] 0.063 | lapatinib -0.081 | pictilisib 0.079

DCTN4 (UniProt Q9UJW0)
inactive: saracatinib 0.022 | sotrastaurin 0.065 | alvocidib -0.012 | Tubastatin A -0.007 | [1] 0.004 | defactinib -0.037 | rucaparib 0.014 | [2] -0.014 | encorafenib -0.005 | [3] 0.023 | [4] 0.002 | filanesib -0.022 | zotarolimus 0 | idasanutlin 0.007 | alisertib -0.046 | [5] -0.005 | gefitinib 0.007 | [6] -0.007 | lapatinib 0.058 | pictilisib -0.059

DCAKD (UniProt Q8WVC6)
inactive: saracatinib -0.065 | sotrastaurin -0.047 | alvocidib -0.091 | Tubastatin A 0.001 | [1] -0.037 | defactinib -0.026 | rucaparib 0.025 | [2] 0.074 | encorafenib 0.042 | [3] -0.031 | [4] -0.26 | filanesib -0.111 | zotarolimus 0.002 | idasanutlin 0.008 | alisertib -0.035 | [5] -0.122 | gefitinib 0.112 | [6] 0.035 | lapatinib 0.049 | pictilisib 0.004

CUL1 (UniProt Q13616)
inactive: saracatinib 0.041 | sotrastaurin 0.038 | alvocidib 0.019 | Tubastatin A -0.024 | [1] 0.026 | defactinib 0.006 | rucaparib -0.033 | [2] -0.048 | encorafenib 0.001 | [3] 0.008 | [4] 0.087 | filanesib -0.032 | zotarolimus 0.027 | idasanutlin -0.032 | alisertib -0.049 | [5] -0.029 | gefitinib -0.006 | [6] 0.037 | lapatinib 0.019 | pictilisib 0.021

DCAF1 (UniProt Q9Y4B6)
inactive: saracatinib 0.003 | sotrastaurin -0.029 | alvocidib -0.13 | Tubastatin A 0.014 | [1] 0.009 | defactinib -0.181 | rucaparib -0.086 | [2] -0.053 | encorafenib -0.035 | [3] 0.013 | [4] 0.048 | filanesib 0.05 | zotarolimus 0 | idasanutlin -0.066 | alisertib 0.046 | [5] -0.013 | gefitinib -0.014 | [6] 0.048 | lapatinib 0 | pictilisib 0.091

CUL4B (UniProt K4DI93)
inactive: saracatinib 0.051 | sotrastaurin 0.006 | alvocidib -0.082 | Tubastatin A -0.002 | [1] 0.001 | defactinib -0.005 | rucaparib -0.059 | [2] -0.005 | encorafenib 0.002 | [3] -0.009 | [4] -0.038 | filanesib -0.044 | zotarolimus 0.043 | idasanutlin -0.085 | alisertib -0.026 | [5] 0 | gefitinib 0.018 | [6] 0.012 | lapatinib -0.027 | pictilisib 0.036

Looked up one by one from above, two records:
CUL4B (UniProt K4DI93)
inactive: saracatinib 0.051 | sotrastaurin 0.006 | alvocidib -0.082 | Tubastatin A -0.002 | [1] 0.001 | defactinib -0.005 | rucaparib -0.059 | [2] -0.005 | encorafenib 0.002 | [3] -0.009 | [4] -0.038 | filanesib -0.044 | zotarolimus 0.043 | idasanutlin -0.085 | alisertib -0.026 | [5] 0 | gefitinib 0.018 | [6] 0.012 | lapatinib -0.027 | pictilisib 0.036

DCAF1 (UniProt Q9Y4B6)
inactive: saracatinib 0.003 | sotrastaurin -0.029 | alvocidib -0.13 | Tubastatin A 0.014 | [1] 0.009 | defactinib -0.181 | rucaparib -0.086 | [2] -0.053 | encorafenib -0.035 | [3] 0.013 | [4] 0.048 | filanesib 0.05 | zotarolimus 0 | idasanutlin -0.066 | alisertib 0.046 | [5] -0.013 | gefitinib -0.014 | [6] 0.048 | lapatinib 0 | pictilisib 0.091

The list goes on:

CT45A5 (UniProt P0DMU8)
inactive: saracatinib -0.034 | sotrastaurin -0.035 | alvocidib 0.131 | Tubastatin A 0.016 | [1] 0.029 | defactinib 0.264 | rucaparib 0.117 | [2] 0.043 | encorafenib 0.085 | [3] 0.001 | [4] -0.054 | filanesib 0.225 | zotarolimus 0.032 | idasanutlin 0.133 | alisertib -0.048 | [5] -0.102 | gefitinib -0.06 | [6] -0.091 | lapatinib 0.095 | pictilisib -0.137

CYP20A1 (UniProt Q6UW02)
inactive: saracatinib 0.017 | sotrastaurin 0.042 | alvocidib -0.034 | Tubastatin A -0.016 | [1] -0.008 | defactinib -0.029 | rucaparib -0.174 | [2] -0.04 | encorafenib 0.011 | [3] 0.019 | [4] -0.041 | filanesib -0.069 | zotarolimus 0.013 | idasanutlin -0.109 | alisertib -0.045 | [5] 0.002 | gefitinib 0.008 | [6] 0.056 | lapatinib -0.013 | pictilisib -0.009

CYBC1 (UniProt Q9BQA9)
inactive: saracatinib 0.091 | sotrastaurin 0.062 | alvocidib 0.024 | Tubastatin A -0.026 | [1] -0.035 | defactinib -0.015 | rucaparib -0.128 | [2] -0.02 | encorafenib -0.002 | [3] 0.029 | [4] -0.066 | filanesib -0.097 | zotarolimus -0.032 | idasanutlin -0.04 | alisertib -0.062 | [5] -0.046 | gefitinib 0.014 | [6] 0.134 | lapatinib -0.087 | pictilisib 0.045

CXorf38 (UniProt Q8TB03)
inactive: saracatinib -0.009 | sotrastaurin 0 | alvocidib -0.081 | Tubastatin A -0.02 | [1] 0.06 | defactinib -0.045 | rucaparib 0.011 | [2] -0.065 | encorafenib -0.004 | [3] 0.036 | [4] 0.012 | filanesib -0.034 | zotarolimus -0.024 | idasanutlin -0.015 | alisertib 0 | [5] 0.085 | gefitinib 0.08 | [6] 0.017 | lapatinib 0.004 | pictilisib 0.026

CTIF isoform 2 (UniProt O43310)
inactive: saracatinib 0.031 | sotrastaurin 0.105 | alvocidib 0.066 | Tubastatin A -0.066 | [1] 0.013 | defactinib -0.002 | rucaparib -0.06 | [2] -0.034 | encorafenib 0.1 | [3] 0.083 | [4] -0.105 | filanesib -0.096 | zotarolimus -0.02 | idasanutlin 0.024 | alisertib 0.1 | [5] 0.059 | gefitinib -0.023 | [6] 0.122 | lapatinib 0.014 | pictilisib -0.041
